{
  "sequences": {"note": "By UniProt entry, the sequences of proteins in these tests, tags left out.", "UniProt Q9H4L4": "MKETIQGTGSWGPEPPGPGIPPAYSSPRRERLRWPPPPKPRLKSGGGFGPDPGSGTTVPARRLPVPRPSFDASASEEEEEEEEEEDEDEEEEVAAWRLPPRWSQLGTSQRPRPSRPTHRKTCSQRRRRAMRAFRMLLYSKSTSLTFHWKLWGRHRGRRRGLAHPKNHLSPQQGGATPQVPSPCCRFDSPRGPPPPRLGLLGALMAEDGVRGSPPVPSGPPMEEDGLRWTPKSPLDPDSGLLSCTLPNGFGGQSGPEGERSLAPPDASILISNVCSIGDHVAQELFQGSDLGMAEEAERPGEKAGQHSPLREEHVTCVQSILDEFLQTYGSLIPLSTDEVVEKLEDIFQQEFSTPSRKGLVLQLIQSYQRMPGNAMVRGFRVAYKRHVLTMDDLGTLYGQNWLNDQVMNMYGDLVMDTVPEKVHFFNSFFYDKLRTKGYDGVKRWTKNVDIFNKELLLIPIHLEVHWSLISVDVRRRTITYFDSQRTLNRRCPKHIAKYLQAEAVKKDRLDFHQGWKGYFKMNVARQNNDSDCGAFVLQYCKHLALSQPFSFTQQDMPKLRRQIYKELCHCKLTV"},
  "source": "paper PMC5364561",
  "binders": {"B1": {"name": "LRRFIP1 (protein, UniProt Q32MZ4 1-808)", "chain": "MTSPAAAQSREIDCLSPEAQKLAEARLAAKRAARAEAREIRMKELERQQKEEDSERYSRRSRRNTSASDEDERMSVGSRGSLRVEERPEKDFTEKGSRNMPGLSAATLASLGGTSSRRGSGDTSISIDTEASIREIKELNELKDQIQDVEGKYMQGLKEMKDSLAEVEEKYKKAMVSNAQLDNEKTNFMYQVDTLKDMLLELEEQLAESRRQYEEKNKEFEREKHAHSILQFQFAEVKEALKQREEMLEKHGIILNSEIATNGETSDTLNNVGYQGPTKMTKEELNALKSTGDGTLGRASEVEVKNEIVANVGKREILHNTEKEQHTEDTVKDCVDIEVFPAGENTEDQKSSEDTAPFLGTLAGATYEEQVQSQILESSSLPENTVQVESNEVMGAPDDRTRTPLEPSNCWSDLDGGNHTENVGEAAVTQVEEQAGTVASCPLGHSDDTVYHDDKCMVEVPQELETSTGHSLEKEFTNQEAAEPKEVPAHSTEVGRDHNEEEGEETGLRDEKPIKTEVPGSPAGTEGNCQEATGPSTVDTQNEPLDMKEPDEEKSDQQGEALDSSQKKTKNKKKKNKKKKSPVPVETLKDVKKELTYQNTDLSEIKEEEQVKSTDRKSAVEAQNEVTENPKQKIAAESSENVDCPENPKIKLDGKLDQEGDDVQTAAEEVLADGDTLDFEDDTVQSSGPRAGGEELDEGVAKDNAKIDGATQSSPAEPKSEDADRCTLPEHESPSQDISDACEAESTERCEMSEHPSQTVRKALDSNSLENDDLSAPGREPGHFNPESREDTRGGNEKGKSKEDCTMS"}},
  "biological_target": "SUMO isopeptidase SENP3 (sentrin-specific protease 3) (human (endogenous in HeLa)) (UniProt Q9H4L4)",
  "test": "affinity purification with mass spectrometry; SILAC-labelled HeLa lysates (50 mM HEPES pH 7.5, 150 mM NaCl, 2 mM EDTA, 0.5% Triton X-100); anti-SENP3 IP (R6K4) against control rabbit IgG IP (R0K0), protein G dynabeads, mixed 1:1, SDS-PAGE, LC-MS/MS",
  "note": "Results are given in words; binding and its absence hold for the method and conditions named. Binding seen in cells or lysates may run through a third protein. A yes stands for co-enrichment or nearness to the bait. Other partners may have been found.",
  "data": [
    {"binder": "B1", "values": [
      {"measurement": "binding", "value": "binds"}
    ]}
  ]
}
